PubChem BioAssay AID493246 | Drosophila RNAi Screening Center | 2011
The screen tested about 21,000 reagents; below is an unselected part of those that have a named target and a result. Of all reagents, 429 (2%) got an active call. 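Values are raw and not normalised between plates; calls rest on per-plate z-scores that were not deposited.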 The record does not give: the amount of reagent, the time to read-out.

- Screen: 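Genes fly cells need to grow and stay alive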 (primary screen)
- Cells: Drosophila Kc and S2R+ cells
- Reagent: long dsRNA against Drosophila genes
- Measurement: 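Raw, unnormalised count of remaining cells in each well; per-plate z-scores of cell number underlie the calls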
- Reading the numbers: Kc cell number and S2R+ cell number: higher = more cells remaining
- Hit rule: 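Active when the per-plate z-score of cell number is 3 or more in the direction of fewer cells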

gene	DRSC id	Kc cell number, rep 1	Kc cell number, rep 2	S2R+ cell number, rep 1	S2R+ cell number, rep 2	Call
HERC2 (HECT and RLD domain containing protein 2)	DRSC20566	1.45e6	1.51e6	1.02e6	1.13e6	inactive
Hsp67Ba (Heat shock gene 67Ba)	DRSC11191	1.60e6	1.60e6	1.17e6	1.32e6	inactive
CG32750	DRSC18848	1.52e6	1.59e6	1.07e6	1.23e6	inactive
U4-U6-60K (U4-U6 small nuclear riboprotein factor 60K)	DRSC10624	1.40e6	1.46e6	1.10e6	1.15e6	inactive
saturn	DRSC09303	1.47e6	1.49e6	1.15e6	1.29e6	inactive
CG10793	DRSC17760	1.69e6	1.80e6	1.12e6	1.31e6	inactive
Etl1	DRSC02911	1.20e6	1.28e6	1.17e6	1.23e6	inactive
CG12531	DRSC19466	1.49e6	1.52e6	1.05e6	1.16e6	inactive
CG12708	DRSC19490	1.50e6	1.50e6	1.09e6	1.16e6	inactive
CG15247	DRSC17976	1.55e6	1.59e6	1.11e6	1.23e6	inactive
Tim23 (Translocase of inner mitochondrial membrane 23)	DRSC21240	1.36e6	1.49e6	1.04e6	1.13e6	inactive
eEFSec	DRSC04571	1.47e6	1.59e6	1.23e6	2.55e5	inactive
Gr47b (Gustatory receptor 47b)	DRSC05275	1.41e6	1.43e6	9.93e5	1.13e6	inactive
CG31955	DRSC00285	1.89e6	1.76e6	1.19e6	1.42e6	inactive
CG13954	DRSC06442	1.53e6	1.54e6	1.27e6	1.31e6	inactive
CG10000	DRSC14170	1.48e6	1.50e6	1.05e6	1.13e6	inactive
Ag5r (Antigen 5-related)	DRSC19327	5.01e5		8.58e5		inactive
YL-1	DRSC02765	1.72e6	1.77e6	1.17e6	1.33e6	inactive
hpRNA:CR32205 (hairpin RNA:CR32205)	DRSC09890	1.53e6	1.68e6	1.37e6	1.42e6	inactive
Bin1 (Bicoid interacting protein 1)	DRSC16843	1.18e6	1.25e6	1.12e6	1.29e6	inactive
CG14568	DRSC11729	1.50e6	1.94e6	1.21e6	1.36e6	inactive
CG43896	DRSC10754	1.35e6	1.37e6	1.41e6	1.54e6	inactive
CG12655	DRSC20678	1.45e6	1.46e6	1.03e6	1.04e6	inactive
CG18598	DRSC15356	1.47e6	1.43e6	1.13e6	1.29e6	inactive
qjt (quijote)	DRSC10060	1.44e6	1.48e6	1.33e6	1.48e6	inactive
Obp99c (Odorant-binding protein 99c)	DRSC16262	1.77e6	1.78e6	1.03e6	1.16e6	inactive
Fdx2 (Ferredoxin 2)	DRSC08306	1.67e6	1.56e6	9.90e5	1.28e6	inactive
qkr58E-1 (quaking related 58E-1)	DRSC04709	1.35e6	1.37e6	9.18e5	1.03e6	inactive
Zn72D (Zinc-finger protein at 72D)	DRSC11318	1.42e6	1.45e6	1.15e6	1.24e6	inactive
Magi	DRSC04247	1.41e6	1.56e6	1.10e6	1.07e6	inactive
Magi	DRSC04451	1.45e6	1.71e6	1.39e6	3.34e5	inactive
CG5404	DRSC15793	1.54e6	1.54e6	1.55e6	1.67e6	inactive
GC1	DRSC15322	1.94e6	1.99e6	1.31e6	1.27e6	inactive
CG12420	DRSC14514	1.36e6	1.31e6	1.00e6	1.16e6	inactive
CG1428	DRSC03708	1.51e6	1.60e6	1.31e6	3.20e5	inactive
Ing3 (Inhibitor of growth family, member 3)	DRSC20002	1.72e6	1.54e6	1.14e6	1.17e6	inactive
CG14221	DRSC19578	1.52e6	1.48e6	1.18e6	1.27e6	inactive
CG11964	DRSC14447	1.44e6	1.55e6	1.24e6	1.27e6	inactive
CG8026	DRSC07055	1.16e6	1.47e6	9.23e5	1.03e6	inactive
CG8026	DRSC07056	1.48e6	1.54e6	1.32e6	1.47e6	inactive
CG15712	DRSC06583	1.58e6	1.57e6	1.18e6	1.31e6	inactive
CG8028	DRSC20075	1.59e6	1.58e6	1.09e6	1.21e6	inactive
Takl2 (Tak1-like 2)	DRSC15650	1.48e6	1.47e6	9.89e5	1.06e6	inactive
Cpr (Cytochrome P450 reductase)	DRSC03293	1.38e6	1.45e6	4.89e5	9.40e5	inactive
APC4 (Anaphase Promoting Complex subunit 4)	DRSC18360	6.67e5		7.92e5		inactive
srw (shrew)	DRSC08201	1.54e6	1.38e6	1.11e6	1.50e6	inactive
CG30269	DRSC04158	1.81e6	1.90e6	1.26e6	1.32e6	inactive
Tom70 (Translocase of outer membrane 70)	DRSC02990	1.51e6	1.58e6	1.02e6	1.16e6	inactive
CG43672	DRSC19452	1.49e6	1.50e6	1.07e6	1.14e6	inactive
CG43672	DRSC20108	1.38e6	1.40e6	1.03e6	1.12e6	inactive
su(Hw) (suppressor of Hairy wing)	DRSC17074	1.45e6	1.52e6	1.19e6	1.26e6	inactive
dpr20 (defective proboscis extension response 20)	DRSC08265	1.36e6	1.38e6	1.06e6	1.08e6	inactive
ais (aramis)	DRSC10523	1.46e6	1.52e6	1.20e6	1.28e6	inactive
CG7606	DRSC13246	1.38e6	1.41e6	9.92e5	1.07e6	inactive
CG7606	DRSC16268	1.45e6	1.53e6	1.02e6	9.97e5	inactive
l(2)dtl (lethal-(2)-denticleless)	DRSC04697	1.33e6	1.34e6	5.92e5	6.79e5	inactive
arm (armadillo)	DRSC18738	5.93e5		7.88e5		inactive
CG2854	DRSC18595	1.49e6	1.43e6	9.97e5	1.13e6	inactive
Gapvd1 (GTPase activating protein and VPS9 domains 1)	DRSC19752	1.62e6	1.54e6	1.12e6	1.31e6	inactive

Records listed so far whose gene name starts with H or h:
gene	DRSC id	Kc cell number, rep 1	Kc cell number, rep 2	S2R+ cell number, rep 1	S2R+ cell number, rep 2	Call
HERC2 (HECT and RLD domain containing protein 2)	DRSC20566	1.45e6	1.51e6	1.02e6	1.13e6	inactive
Hsp67Ba (Heat shock gene 67Ba)	DRSC11191	1.60e6	1.60e6	1.17e6	1.32e6	inactive
hpRNA:CR32205 (hairpin RNA:CR32205)	DRSC09890	1.53e6	1.68e6	1.37e6	1.42e6	inactive
